The chains behind the UniProt entries cited, without tags or fusion partners. Where a name states a change or a piece, a line headed by the entry shows the natural chain unless it says otherwise.
UniProt P46462: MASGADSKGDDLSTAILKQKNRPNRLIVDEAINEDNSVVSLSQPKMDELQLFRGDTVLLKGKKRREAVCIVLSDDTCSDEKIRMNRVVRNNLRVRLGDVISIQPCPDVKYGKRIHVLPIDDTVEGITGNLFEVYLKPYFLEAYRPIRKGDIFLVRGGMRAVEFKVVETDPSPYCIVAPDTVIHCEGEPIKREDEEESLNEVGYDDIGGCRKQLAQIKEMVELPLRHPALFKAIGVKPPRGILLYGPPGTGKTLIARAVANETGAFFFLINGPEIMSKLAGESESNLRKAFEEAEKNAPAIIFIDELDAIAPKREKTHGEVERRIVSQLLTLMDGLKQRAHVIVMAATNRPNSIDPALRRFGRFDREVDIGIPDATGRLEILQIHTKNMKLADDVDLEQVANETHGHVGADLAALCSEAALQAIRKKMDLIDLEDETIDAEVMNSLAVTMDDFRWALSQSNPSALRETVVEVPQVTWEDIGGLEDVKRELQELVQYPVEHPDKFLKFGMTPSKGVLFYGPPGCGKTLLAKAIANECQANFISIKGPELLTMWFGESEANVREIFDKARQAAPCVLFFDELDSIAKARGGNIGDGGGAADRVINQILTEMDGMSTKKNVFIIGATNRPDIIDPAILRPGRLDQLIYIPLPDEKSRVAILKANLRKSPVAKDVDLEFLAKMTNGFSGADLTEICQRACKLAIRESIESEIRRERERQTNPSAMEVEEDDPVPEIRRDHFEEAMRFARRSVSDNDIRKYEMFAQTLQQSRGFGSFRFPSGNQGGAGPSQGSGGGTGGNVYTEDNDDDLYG
UniProt A0ABK0M5C8: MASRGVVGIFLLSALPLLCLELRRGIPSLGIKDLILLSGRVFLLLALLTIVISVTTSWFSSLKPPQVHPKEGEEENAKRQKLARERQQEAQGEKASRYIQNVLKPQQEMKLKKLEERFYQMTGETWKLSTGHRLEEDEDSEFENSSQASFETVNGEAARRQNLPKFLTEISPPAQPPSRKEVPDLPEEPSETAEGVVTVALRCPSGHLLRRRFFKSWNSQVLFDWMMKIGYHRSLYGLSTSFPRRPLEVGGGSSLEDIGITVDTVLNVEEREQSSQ

According to publication PMC3174242:

Columns and labels:
GST-tagged Rep8 (human) = target: T1, GST-tagged Rep8 (human) (UniProt O00124); assay: pull-down; GST or GST fusion proteins immobilised on glutathione Sepharose beads; purified p97 (from red blood cells, or 6His-tagged p97 and truncations), about 3 ug p97 per reaction, buffer A, 4°C, 4 h; bound proteins by SDS-PAGE and blotting; both purified
T1 sequence: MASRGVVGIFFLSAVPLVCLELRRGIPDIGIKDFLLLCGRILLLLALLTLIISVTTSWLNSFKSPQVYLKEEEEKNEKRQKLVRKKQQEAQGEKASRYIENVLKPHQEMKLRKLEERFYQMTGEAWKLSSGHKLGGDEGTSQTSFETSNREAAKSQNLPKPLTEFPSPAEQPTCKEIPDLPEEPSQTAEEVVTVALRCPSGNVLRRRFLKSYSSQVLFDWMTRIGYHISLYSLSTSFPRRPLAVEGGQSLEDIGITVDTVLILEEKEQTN

[1] = target: endogenous p97 (rat testis) (rat (endogenous in testis)) (UniProt P46462); assay: co-IP; endogenous p97 immunoprecipitated from rat testis homogenate; blot with antibodies to p97 and Rep8

Row | Substance | binding (GST-tagged Rep8 (human)) | binding [1]
1 | 6His-tagged p97 N-domain (p97 truncation) (from UniProt Q01853) (domain or fragment) | binds | 
2 | endogenous Rep8 (rat testis) (from UniProt A0ABK0M5C8) |  | binds

No constants are given. Whether binding was seen depends on the method and setting. A result given as binding can be weak or reduced; the word gives no strength. For some assays here: Sequences can lack the tags named with a protein. For some assays here: Binding seen in cells or lysates may run through a third protein.
